Measured values taken from the supplement of paper PMC12819154, “High-throughput peptide-centric local stability assay extends protein–ligand identification to membrane proteins, tissues and bacteria” (Nature Structural & Molecular Biology, 2025).
The other results are listed elsewhere or left out. Small differences around the control level are noise.

Chains of the proteins cited; added tags and fusions are not shown. Lines headed by an entry give the natural chain unless they say otherwise; changes in a name come on top.
UniProt Q9NUL7: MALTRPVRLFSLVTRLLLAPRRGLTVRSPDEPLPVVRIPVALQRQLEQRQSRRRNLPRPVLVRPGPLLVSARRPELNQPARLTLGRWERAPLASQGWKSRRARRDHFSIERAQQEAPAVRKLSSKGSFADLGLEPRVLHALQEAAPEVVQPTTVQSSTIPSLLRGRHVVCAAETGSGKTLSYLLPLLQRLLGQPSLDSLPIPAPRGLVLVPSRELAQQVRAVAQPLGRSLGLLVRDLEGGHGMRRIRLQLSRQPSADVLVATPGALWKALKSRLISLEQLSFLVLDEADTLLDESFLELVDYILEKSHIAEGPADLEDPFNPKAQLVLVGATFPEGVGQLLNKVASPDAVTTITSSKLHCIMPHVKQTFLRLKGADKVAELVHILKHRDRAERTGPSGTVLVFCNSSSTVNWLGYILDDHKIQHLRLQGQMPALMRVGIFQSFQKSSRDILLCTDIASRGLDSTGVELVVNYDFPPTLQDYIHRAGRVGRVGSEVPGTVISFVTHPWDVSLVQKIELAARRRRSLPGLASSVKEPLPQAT
UniProt Q9NS18: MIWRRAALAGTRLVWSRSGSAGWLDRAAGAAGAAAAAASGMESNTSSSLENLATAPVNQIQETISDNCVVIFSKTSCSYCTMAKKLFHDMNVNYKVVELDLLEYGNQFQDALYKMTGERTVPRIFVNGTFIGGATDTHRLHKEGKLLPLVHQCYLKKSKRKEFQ
UniProt Q9NX07: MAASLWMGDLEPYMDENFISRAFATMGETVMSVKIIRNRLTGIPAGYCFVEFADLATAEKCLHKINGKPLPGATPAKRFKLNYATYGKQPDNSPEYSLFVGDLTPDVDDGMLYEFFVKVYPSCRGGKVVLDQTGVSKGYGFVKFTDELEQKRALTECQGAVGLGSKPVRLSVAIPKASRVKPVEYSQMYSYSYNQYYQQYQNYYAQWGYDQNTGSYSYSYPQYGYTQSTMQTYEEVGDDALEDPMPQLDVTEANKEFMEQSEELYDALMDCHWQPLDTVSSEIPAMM
UniProt Q9NQY0: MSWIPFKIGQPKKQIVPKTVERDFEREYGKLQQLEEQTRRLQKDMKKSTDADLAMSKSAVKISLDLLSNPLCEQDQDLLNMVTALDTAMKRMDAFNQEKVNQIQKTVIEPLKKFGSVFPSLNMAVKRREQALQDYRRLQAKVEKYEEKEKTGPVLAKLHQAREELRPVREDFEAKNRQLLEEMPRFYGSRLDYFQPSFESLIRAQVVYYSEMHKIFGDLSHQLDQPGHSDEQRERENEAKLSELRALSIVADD
UniProt Q9NUK0: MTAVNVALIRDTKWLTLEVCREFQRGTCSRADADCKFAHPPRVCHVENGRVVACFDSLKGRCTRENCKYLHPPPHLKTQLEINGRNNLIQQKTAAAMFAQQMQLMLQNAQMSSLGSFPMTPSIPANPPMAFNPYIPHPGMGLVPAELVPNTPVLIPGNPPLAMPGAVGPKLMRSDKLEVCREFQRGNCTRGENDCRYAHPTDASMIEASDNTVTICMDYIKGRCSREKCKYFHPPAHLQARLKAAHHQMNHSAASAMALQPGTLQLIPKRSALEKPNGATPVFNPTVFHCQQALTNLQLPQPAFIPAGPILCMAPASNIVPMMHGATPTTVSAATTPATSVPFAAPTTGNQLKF
UniProt Q9NUQ6: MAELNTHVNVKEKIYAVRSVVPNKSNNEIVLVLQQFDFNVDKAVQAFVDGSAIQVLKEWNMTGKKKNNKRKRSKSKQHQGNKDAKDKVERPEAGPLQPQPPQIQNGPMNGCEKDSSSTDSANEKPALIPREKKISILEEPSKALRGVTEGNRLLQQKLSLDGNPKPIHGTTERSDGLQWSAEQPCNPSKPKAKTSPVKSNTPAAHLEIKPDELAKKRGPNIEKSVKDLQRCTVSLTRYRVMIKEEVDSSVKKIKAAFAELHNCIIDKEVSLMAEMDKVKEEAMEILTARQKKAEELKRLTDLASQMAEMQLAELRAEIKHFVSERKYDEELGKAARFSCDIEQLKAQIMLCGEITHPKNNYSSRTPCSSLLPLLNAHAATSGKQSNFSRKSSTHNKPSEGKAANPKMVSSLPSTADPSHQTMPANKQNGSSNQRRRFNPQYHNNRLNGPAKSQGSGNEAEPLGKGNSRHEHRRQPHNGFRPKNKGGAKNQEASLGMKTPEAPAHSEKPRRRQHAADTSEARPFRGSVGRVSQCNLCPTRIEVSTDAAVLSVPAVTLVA
UniProt Q9NYF3: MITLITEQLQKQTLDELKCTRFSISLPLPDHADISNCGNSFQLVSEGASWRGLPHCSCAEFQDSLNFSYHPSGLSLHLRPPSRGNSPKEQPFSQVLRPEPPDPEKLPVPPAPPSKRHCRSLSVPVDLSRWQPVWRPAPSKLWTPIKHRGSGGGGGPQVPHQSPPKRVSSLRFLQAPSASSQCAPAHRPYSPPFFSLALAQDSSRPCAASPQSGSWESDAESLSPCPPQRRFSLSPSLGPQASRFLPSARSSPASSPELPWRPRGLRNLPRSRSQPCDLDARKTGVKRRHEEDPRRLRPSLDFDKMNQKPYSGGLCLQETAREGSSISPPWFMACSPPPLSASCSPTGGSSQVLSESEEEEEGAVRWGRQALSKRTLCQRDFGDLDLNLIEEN
UniProt Q9NRN9: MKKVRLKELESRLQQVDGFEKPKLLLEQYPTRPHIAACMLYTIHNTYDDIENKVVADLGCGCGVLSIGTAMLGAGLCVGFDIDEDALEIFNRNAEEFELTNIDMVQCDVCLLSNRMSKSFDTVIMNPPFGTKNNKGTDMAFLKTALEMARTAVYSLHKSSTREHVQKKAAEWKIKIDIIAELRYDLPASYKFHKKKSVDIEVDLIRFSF
UniProt Q9NV31: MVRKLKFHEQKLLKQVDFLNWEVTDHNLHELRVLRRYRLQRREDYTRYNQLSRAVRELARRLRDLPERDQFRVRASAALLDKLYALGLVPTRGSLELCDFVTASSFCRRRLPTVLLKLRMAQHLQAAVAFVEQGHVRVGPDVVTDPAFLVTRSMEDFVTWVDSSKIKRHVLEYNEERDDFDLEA
UniProt Q9NXW9: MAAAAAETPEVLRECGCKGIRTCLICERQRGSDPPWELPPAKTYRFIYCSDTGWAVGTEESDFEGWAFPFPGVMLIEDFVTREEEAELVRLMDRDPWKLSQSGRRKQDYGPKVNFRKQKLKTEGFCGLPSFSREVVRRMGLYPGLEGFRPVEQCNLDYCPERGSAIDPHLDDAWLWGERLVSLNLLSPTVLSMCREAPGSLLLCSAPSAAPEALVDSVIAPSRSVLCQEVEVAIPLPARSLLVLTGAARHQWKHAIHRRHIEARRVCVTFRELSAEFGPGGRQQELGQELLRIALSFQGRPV
UniProt Q9NRG7: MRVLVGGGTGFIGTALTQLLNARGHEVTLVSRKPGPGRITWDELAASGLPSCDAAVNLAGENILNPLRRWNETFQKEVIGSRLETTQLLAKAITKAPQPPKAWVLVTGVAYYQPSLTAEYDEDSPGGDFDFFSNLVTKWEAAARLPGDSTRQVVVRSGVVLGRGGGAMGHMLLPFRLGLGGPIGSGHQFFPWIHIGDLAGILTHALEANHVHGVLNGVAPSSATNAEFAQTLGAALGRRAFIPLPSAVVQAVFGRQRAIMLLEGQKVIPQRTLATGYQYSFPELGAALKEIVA
UniProt Q9NXJ5: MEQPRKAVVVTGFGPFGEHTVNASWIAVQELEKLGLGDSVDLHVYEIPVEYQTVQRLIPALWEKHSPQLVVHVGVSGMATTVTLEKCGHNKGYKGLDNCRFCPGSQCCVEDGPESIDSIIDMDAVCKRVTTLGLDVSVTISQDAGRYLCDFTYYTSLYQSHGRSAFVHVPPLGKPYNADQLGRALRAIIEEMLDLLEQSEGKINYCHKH
UniProt Q9NRX4: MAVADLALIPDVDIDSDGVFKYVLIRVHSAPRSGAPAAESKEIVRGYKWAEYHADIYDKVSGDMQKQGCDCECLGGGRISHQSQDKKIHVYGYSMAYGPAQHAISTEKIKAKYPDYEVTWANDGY
UniProt Q9NUD5: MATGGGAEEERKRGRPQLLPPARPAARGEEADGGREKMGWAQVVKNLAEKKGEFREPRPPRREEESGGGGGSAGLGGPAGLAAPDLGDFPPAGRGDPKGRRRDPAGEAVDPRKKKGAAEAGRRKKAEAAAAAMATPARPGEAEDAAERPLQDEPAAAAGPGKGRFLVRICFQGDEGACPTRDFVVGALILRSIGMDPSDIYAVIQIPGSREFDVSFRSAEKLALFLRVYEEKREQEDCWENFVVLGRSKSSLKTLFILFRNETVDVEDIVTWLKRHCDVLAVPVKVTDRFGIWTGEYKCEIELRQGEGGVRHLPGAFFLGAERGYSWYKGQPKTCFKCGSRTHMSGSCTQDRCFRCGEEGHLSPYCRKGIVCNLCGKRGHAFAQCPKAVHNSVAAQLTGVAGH
UniProt Q9NVK5: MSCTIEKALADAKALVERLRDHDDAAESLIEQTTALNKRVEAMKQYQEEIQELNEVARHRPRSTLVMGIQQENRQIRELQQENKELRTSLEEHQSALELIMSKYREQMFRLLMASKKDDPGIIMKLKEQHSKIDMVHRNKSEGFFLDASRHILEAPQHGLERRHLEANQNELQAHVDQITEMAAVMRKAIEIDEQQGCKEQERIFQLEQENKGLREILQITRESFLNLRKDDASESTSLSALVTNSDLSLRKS
UniProt Q9NW38: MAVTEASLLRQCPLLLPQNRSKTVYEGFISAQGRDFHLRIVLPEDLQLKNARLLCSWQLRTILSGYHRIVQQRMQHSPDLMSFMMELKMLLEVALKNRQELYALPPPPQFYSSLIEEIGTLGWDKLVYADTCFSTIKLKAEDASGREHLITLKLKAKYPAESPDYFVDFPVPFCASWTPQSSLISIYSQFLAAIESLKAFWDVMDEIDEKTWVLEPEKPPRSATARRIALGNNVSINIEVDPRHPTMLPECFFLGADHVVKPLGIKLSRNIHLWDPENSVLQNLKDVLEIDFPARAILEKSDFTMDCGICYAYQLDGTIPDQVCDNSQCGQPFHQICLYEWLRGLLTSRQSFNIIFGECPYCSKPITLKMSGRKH
UniProt Q9NYS0: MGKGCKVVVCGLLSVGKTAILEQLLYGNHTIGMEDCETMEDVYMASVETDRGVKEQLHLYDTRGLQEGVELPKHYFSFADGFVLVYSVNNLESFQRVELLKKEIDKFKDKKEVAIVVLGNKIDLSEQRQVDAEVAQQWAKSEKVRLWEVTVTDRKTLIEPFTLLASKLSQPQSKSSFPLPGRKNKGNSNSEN
UniProt Q9NX46: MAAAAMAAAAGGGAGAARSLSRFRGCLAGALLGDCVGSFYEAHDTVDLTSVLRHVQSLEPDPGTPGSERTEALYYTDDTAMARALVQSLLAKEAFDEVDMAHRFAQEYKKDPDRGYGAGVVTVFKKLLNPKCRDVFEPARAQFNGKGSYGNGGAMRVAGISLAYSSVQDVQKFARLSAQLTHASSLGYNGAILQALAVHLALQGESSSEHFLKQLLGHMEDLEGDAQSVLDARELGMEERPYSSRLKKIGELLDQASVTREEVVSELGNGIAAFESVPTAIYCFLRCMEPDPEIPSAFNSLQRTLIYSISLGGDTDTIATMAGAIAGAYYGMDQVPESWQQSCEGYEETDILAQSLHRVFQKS
UniProt Q9NRD1: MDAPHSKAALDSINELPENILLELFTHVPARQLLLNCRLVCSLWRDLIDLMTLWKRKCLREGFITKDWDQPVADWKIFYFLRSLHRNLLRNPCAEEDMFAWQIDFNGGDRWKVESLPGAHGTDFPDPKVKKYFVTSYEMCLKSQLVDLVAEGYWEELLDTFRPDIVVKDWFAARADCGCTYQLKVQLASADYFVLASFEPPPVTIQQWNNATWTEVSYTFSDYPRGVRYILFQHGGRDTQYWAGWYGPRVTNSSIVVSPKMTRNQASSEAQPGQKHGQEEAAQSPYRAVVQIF
UniProt Q9NVP2, whole entry: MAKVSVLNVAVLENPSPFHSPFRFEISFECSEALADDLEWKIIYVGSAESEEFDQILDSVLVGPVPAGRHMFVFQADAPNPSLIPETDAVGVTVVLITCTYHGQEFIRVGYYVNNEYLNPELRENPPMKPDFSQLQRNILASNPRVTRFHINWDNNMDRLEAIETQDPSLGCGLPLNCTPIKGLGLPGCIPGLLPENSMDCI

Compound: CN[C@@H]1C[C@H]2O[C@@](C)([C@@H]1OC)n1c3ccccc3c3c4c(c5c6ccccc6n2c5c31)C(=O)NC4 [staurosporine]
Test: log2 fold change of tryptic peptide abundance, ligand vs vehicle (limited proteolysis) (log2 ratio); higher = more trypsin-susceptible (destabilized)
Settings: ligand concentration: 20 uM; sample: K562 cleared lysate; digestion: 4 min, 22 C (HT-PELSA RT4min, Orbitrap Astral)

Q: How did the log2 fold change turn out when “DDX28 (peptide sequence: GSFADLGLEPR, peptide start residue: 126) (UniProt Q9NUL7)” was run?
A: Its log2 fold change is -0.203.

Q: Which log2 fold change does the source give for “ZBTB40 (peptide sequence: VREESLDVQTVVSLLR, peptide start residue: 299) (UniProt Q9NUA8)” here?
A: Its log2 fold change is 0.39.

Q: With “GLRX2 (peptide sequence: IFVNGTFIGGATDTHR, peptide start residue: 124) (UniProt Q9NS18)” as the target, how does the log2 fold change read?
A: Its log2 fold change is -0.226.

Q: How did the log2 fold change turn out when “ANO10 (peptide sequence: LVTENLKEEPMESGKEK, peptide start residue: 642) (UniProt Q9NW15)” was run?
A: The log2 fold change was 0.0725.

Q: “BIRC6 (peptide sequence: VITDPSLSK, peptide start residue: 4012) (UniProt Q9NR09)” was tested. Which log2 fold change did it give?
A: Its log2 fold change is -0.176.

Q: For “TRNAU1AP (peptide sequence: INGKPLPGATPAKR, peptide start residue: 65) (UniProt Q9NX07)”, which log2 fold change is on record?
A: The log2 fold change was -0.466.

Q: For “BIN3 (peptide sequence: EELRPVREDFEAK, peptide start residue: 163) (UniProt Q9NQY0)”, which log2 fold change is on record?
A: The log2 fold change was 0.487.

Q: “UniProt Q9NUK0 (peptide sequence: WLTLEVCR, peptide start residue: 13)” was tested. Which log2 fold change did it give?
A: The log2 fold change was -0.125.

Q: For “SPATS2L (peptide sequence: RFNPQYHNNR, peptide start residue: 436) (UniProt Q9NUQ6)”, which log2 fold change is on record?
A: Its log2 fold change is 0.301.

Q: “FAM53C (peptide sequence: MNQKPYSGGLCLQETAR, peptide start residue: 305) (UniProt Q9NYF3)” was tested. Which log2 fold change did it give?
A: The log2 fold change was -0.25.

Q: “METTL5 (peptide sequence: KSVDIEVDLIRFSF, peptide start residue: 196) (UniProt Q9NRN9)” was tested. Which log2 fold change did it give?
A: The log2 fold change was 0.274.

Q: With “IMP3 (peptide sequence: LKFHEQK, peptide start residue: 5) (UniProt Q9NV31)” as the target, how does the log2 fold change read?
A: Its log2 fold change is 0.613.

Q: For “ALKBH4 (peptide sequence: RVCVTFR, peptide start residue: 265) (UniProt Q9NXW9)”, which log2 fold change is on record?
A: The log2 fold change was 0.611.

Q: “LYAR (peptide sequence: HSEVETDSKK, peptide start residue: 275) (UniProt Q9NX58)” was tested. Which log2 fold change did it give?
A: Its log2 fold change is 0.356.

Q: Which log2 fold change does the source give for “SDR39U1 (peptide sequence: GGGAMGHMLLPFR, peptide start residue: 164) (UniProt Q9NRG7)” here?
A: The log2 fold change was 0.142.

Q: How did the log2 fold change turn out when “PGPEP1 (peptide sequence: HSPQLVVHVGVSGMATTVTLEK, peptide start residue: 65) (UniProt Q9NXJ5)” was run?
A: Its log2 fold change is -0.198.

Q: How did the log2 fold change turn out when “PHPT1 (peptide sequence: IHVYGYSMAYGPAQHAISTEK, peptide start residue: 88) (UniProt Q9NRX4)” was run?
A: Its log2 fold change is -0.231.

Q: For “FASTKD2 (peptide sequence: QSLVPVDKSDDELK, peptide start residue: 118) (UniProt Q9NYY8)”, which log2 fold change is on record?
A: The log2 fold change was -0.313.

Q: “ZCCHC3 (peptide sequence: GHAFAQCPK, peptide start residue: 379) (UniProt Q9NUD5)” was tested. Which log2 fold change did it give?
A: The log2 fold change was -0.326.

Q: Which log2 fold change does the source give for “MDN1 (peptide sequence: ASHPIVQK, peptide start residue: 1001) (UniProt Q9NU22)” here?
A: Its log2 fold change is 0.329.

Q: For “FGFR1OP2 (peptide sequence: LRDHDDAAESLIEQTTALNKR, peptide start residue: 19) (UniProt Q9NVK5)”, which log2 fold change is on record?
A: The log2 fold change was -0.697.

Q: With “FANCL (peptide sequence: MLLEVALK, peptide start residue: 89) (UniProt Q9NW38)” as the target, how does the log2 fold change read?
A: Its log2 fold change is -0.178.

Q: With “UniProt Q9NW64 (peptide sequence: GEECPYR, peptide start residue: 176)” as the target, how does the log2 fold change read?
A: Its log2 fold change is 0.603.

Q: For “NKIRAS1 (peptide sequence: VVVCGLLSVGK, peptide start residue: 7) (UniProt Q9NYS0)”, which log2 fold change is on record?
A: The log2 fold change was -0.536.

Q: For “ADPRHL2 (peptide sequence: ALVQSLLAKEAFDEVDMAHR, peptide start residue: 84) (UniProt Q9NX46)”, which log2 fold change is on record?
A: The log2 fold change was 0.294.

Q: Which log2 fold change does the source give for “FBXO6 (peptide sequence: NQASSEAQPGQK, peptide start residue: 264) (UniProt Q9NRD1)” here?
A: The log2 fold change was 0.789.

Q: “ASF1B (peptide sequence: ENPPMKPDFSQLQR, peptide start residue: 124) (UniProt Q9NVP2)” was tested. Which log2 fold change did it give?
A: Its log2 fold change is -0.151.

Q: “INTS7 (peptide sequence: LGEQCEAVVRFPR, peptide start residue: 38) (UniProt Q9NVH2)” was tested. Which log2 fold change did it give?
A: The log2 fold change was 0.432.
